The supplement of paper PMC8728848
This is one part of the list.

Key:
Assay in all cases: glycan array binding signal (z-score within array); higher = stronger binding
Conditions in all cases: glycan notation: IUPAC condensed, linker removed
[1] = target: Neu5Ac(a2-6)Gal(b1-4)GlcNAc(b1-6)[Gal(b1-3)]GalNAc
Method in brief: (§1)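 Glycan array data were curated from 3228 arrays in the Consortium for Functional Glycomics database and kept only where the protein sequence was available. Glycan names were converted to IUPAC-condensed notation, and columns mapping to the same glycan were averaged. The binding signal is a within-array Z-score, averaged across arrays of the same protein sequence at different concentrations or buffers and across linkers. Negative Z-scores can be read as non-binding.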

[2] = target: Neu5Ac(a2-6)GalNAc
Method in brief: as §1

[3] = target: Neu5Ac(a2-6)GalNAc(b1-4)GlcNAc
Method in brief: as §1

[4] = target: Neu5Ac(a2-6)GalNAc(b1-4)GlcNAc6S
Method in brief: as §1

[5] = target: Neu5Ac(a2-6)GlcNAc(b1-4)GlcNAc
Method in brief: as §1

[6] = target: Neu5Ac(a2-6)GlcNAc(b1-4)GlcNAc(b1-4)GlcNAc
Method in brief: as §1

[7] = target: Neu5Ac(a2-8)Neu5Ac
Method in brief: as §1

[8] = target: Neu5Ac(a2-8)Neu5Ac(a2-3)Gal(b1-3)GalNAc(b1-4)[Neu5Ac(a2-3)]Gal(b1-4)Glc
Method in brief: as §1

[9] = target: Neu5Ac(a2-8)Neu5Ac(a2-3)Gal(b1-3)GalNAc(b1-4)[Neu5Ac(a2-8)Neu5Ac(a2-3)]Gal(b1-4)Glc
Method in brief: as §1

[10] = target: Neu5Ac(a2-8)Neu5Ac(a2-3)Gal(b1-4)Glc
Method in brief: as §1

[11] = target: Neu5Ac(a2-8)Neu5Ac(a2-3)Gal(b1-4)GlcNAc
Method in brief: as §1

[12] = target: Neu5Ac(a2-8)Neu5Ac(a2-3)[Gal(b1-3)GalNAc(b1-4)]Gal(b1-4)Glc
Method in brief: as §1

[13] = target: Neu5Ac(a2-8)Neu5Ac(a2-3)[GalNAc(b1-4)]Gal(b1-4)Glc
Method in brief: as §1

[14] = target: Neu5Ac(a2-8)Neu5Ac(a2-8)Neu5Ac
Method in brief: as §1

[15] = target: Neu5Ac(a2-8)Neu5Ac(a2-8)Neu5Ac(a2-3)Gal(b1-4)Glc
Method in brief: as §1

[16] = target: Neu5Ac(a2-8)Neu5Ac(a2-8)Neu5Ac(a2-3)[Gal(b1-3)GalNAc(b1-4)]Gal(b1-4)Glc
Method in brief: as §1

[17] = target: Neu5Ac(b2-6)Gal(b1-4)GlcNAc
Method in brief: as §1

[18] = target: Neu5Ac(b2-6)GalNAc
Method in brief: as §1

[19] = target: Neu5Ac9Ac(a2-3)Gal(b1-3)GlcNAc
Method in brief: as §1

[20] = target: Neu5Ac9Ac(a2-3)Gal(b1-4)GlcNAc
Method in brief: as §1

[21] = target: Neu5Ac9Ac(a2-6)Gal(b1-4)GlcNAc
Method in brief: as §1

[22] = target: Neu5Gc(a2-3)Gal(b1-3)GlcNAc
Method in brief: as §1

[23] = target: Neu5Gc(a2-3)Gal(b1-3)[Fuc(a1-4)]GlcNAc
Method in brief: as §1

[24] = target: Neu5Gc(a2-3)Gal(b1-4)Glc
Method in brief: as §1

[25] = target: Neu5Gc(a2-3)Gal(b1-4)GlcNAc
Method in brief: as §1

[26] = target: Neu5Gc(a2-3)Gal(b1-4)GlcNAc(b1-3)Gal(b1-4)GlcNAc(b1-2)Man(a1-3)[Neu5Gc(a2-3)Gal(b1-4)GlcNAc(b1-3)Gal(b1-4)GlcNAc(b1-2)Man(a1-6)]Man(b1-4)GlcNAc(b1-4)GlcNAc
Method in brief: as §1

[27] = target: Neu5Gc(a2-3)Gal(b1-4)[Fuc(a1-3)]GlcNAc
Method in brief: as §1

[28] = target: Neu5Gc(a2-6)Gal(b1-4)GlcNAc
Method in brief: as §1

[29] = target: Neu5Gc(a2-6)GalNAc
Method in brief: as §1

[30] = target: Neu5Gc(a2-8)Neu5Ac(a2-3)Gal(b1-4)GlcNAc
Method in brief: as §1

[31] = target: Neu5Gc(a2-8)Neu5Gc(a2-3)Gal(b1-4)GlcNAc
Method in brief: as §1

[32] = target: Neu5Gc(a2-8)Neu5Gc(a2-3)Gal(b1-4)GlcNAc(b1-3)Gal(b1-4)GlcNAc
Method in brief: as §1

[33] = target: Neu5Gc(a2-8)Neu5Gc(a2-6)Gal(b1-4)GlcNAc
Method in brief: as §1

[34] = target: Neu5Gc(b2-6)Gal(b1-4)GlcNAc
Method in brief: as §1

B1: PX14351B-bth-512-36-512 (Bacteroides thetaiotaomicron) (protein)
chain: ASETQQWKTLEDTRSALMGVYGLTRAALADNNTHWICGDLRKGDFTVYKRSDLQAVSDNELNKPYDLLKKVSNWRRFYAVINAASVFMEKAPRTVELDRSYSEQNLKYDIAQVRALRAFAYFYMVRIWGDVPLVTYSYDNGTFPSMPRTDAQTVLSYAKAELLTAIEDLPYQYGTQTNLYYGSYGAQWQGKLFNKLSAYSVLAHICAWQGNYAEAETYSAFIIDHASEINAKYTSIADLTSETGLFYSNASVKGSRILGFNFAHNDNEATQSGHLEQLTLAYPLVQKSYPEIYISKDSLFSIFTNFDDLRFGIIDTIKYSSYYVQNLNEETPVFSKIKIIQDGSAKDNDFGVFGSSIVFTRLEDITLLRAEALCALNRSTEAVSYLNMIRTNRGLREVSFKKDFGNNRESLIAEIFEERRRELMGEGWRWYDLVRRQKLMKDNEAFLRLISSGGIYWPVSEDIITANSQIEQNEFWK
[1]
  glycan array binding signal (z-score): -0.154
[2]
  glycan array binding signal (z-score): -0.287
[3]
  glycan array binding signal (z-score): -0.122
[4]
  glycan array binding signal (z-score): -0.15
[5]
  glycan array binding signal (z-score): -0.225
[6]
  glycan array binding signal (z-score): -0.026
[7]
  glycan array binding signal (z-score): -0.035
[8]
  glycan array binding signal (z-score): -0.191
[9]
  glycan array binding signal (z-score): -0.288
[10]
  glycan array binding signal (z-score): -0.329
[11]
  glycan array binding signal (z-score): -0.137
[12]
  glycan array binding signal (z-score): -0.099
[13]
  glycan array binding signal (z-score): 0.094
[14]
  glycan array binding signal (z-score): -0.09
[15]
  glycan array binding signal (z-score): -0.22
[16]
  glycan array binding signal (z-score): -0.379
[17]
  glycan array binding signal (z-score): -0.258
[18]
  glycan array binding signal (z-score): -0.269
[19]
  glycan array binding signal (z-score): -0.073
[20]
  glycan array binding signal (z-score): -0.091
[21]
  glycan array binding signal (z-score): -0.276
[22]
  glycan array binding signal (z-score): -0.274
[23]
  glycan array binding signal (z-score): -0.197
[24]
  glycan array binding signal (z-score): -0.321
[25]
  glycan array binding signal (z-score): -0.337
[26]
  glycan array binding signal (z-score): 0.224
[27]
  glycan array binding signal (z-score): -0.301
[28]
  glycan array binding signal (z-score): -0.391
[29]
  glycan array binding signal (z-score): -0.086
[30]
  glycan array binding signal (z-score): -0.336
[31]
  glycan array binding signal (z-score): -0.302
[32]
  glycan array binding signal (z-score): -0.359
[33]
  glycan array binding signal (z-score): -0.296
[34]
  glycan array binding signal (z-score): 0.662
